Data published in PubChem BioAssay AID2685 (National Center for Advancing Translational Sciences (NCATS), 2010).
The list shows a part of the results. Shown are side measurements of this screen, not its main read-out; they come without a call. Compounds called inactive in the main read-out are mostly missing here. Words in brackets tell the shape of the fitted curve; partial curves, single points and poor fits give uncertain potencies.

Experiment: qHTS Assay for Lipid Storage Modulators in Drosophila S3 Cells;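 on cell number change: cells counted by Cell Tracker Red CMTPX staining in the red channel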
Settings: BODIPY lipid droplet fluorescence, 18-24 h; for cell number change: measured here: cell count max response, cells fed with added oleic acid
Method in brief: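 Drosophila S3 cells loaded with oleic acid (400 uM, as added) and compounds at several concentrations; lipid droplets imaged by 488-nm laser-scanning cytometry, 500–530 nm intensity and object ratio to cell channel. Percent activity normalized to 20 uM Triacsin C.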

[1] = measured here: lipid fluorescence (Fed channel) AC50, cells fed with added oleic acid
[2] = measured here: cell number channel AC50, cells fed with added oleic acid

SMILES	cell number change	AC50 [1]	AC50 [2]
CC1=C(NCCc2ccccc2)CCC1=O	1.38%	6.51 µM [falling, partial curve, poor fit]	
CCNc1c(NC(=O)C2CCC(C)CC2)c(=O)oc2ccccc12 (centres undefined)	3.17%	0.58 µM [falling, single point]	
Cc1ccc(C)c(-n2c(SCC(N)=O)nnc2-c2ccccn2)c1	5.97%	6.51 µM [falling, single point]	
CCCCOC(=O)Nc1ccc(OC)cc1S(=O)(=O)N1CCOCC1	-1.84%	0.461 µM [rising, full curve, poor fit]	
Cc1ccc(Nc2cc(C)nc3nnnn23)cc1			0.092 µM [rising, full curve, poor fit]
CCOc1ccc(NC(=O)Nc2ccccc2C(N)=O)cc1	-4.38%	6.51 µM [falling, single point]	6.51 µM [falling, single point]
Cc1c(C(=O)OCC(=O)N2CCCC2=O)oc2ccccc12	17.7%		
Cc1oc2c(cc(NS(=O)(=O)c3ccc(Cl)cc3)c3ccccc32)c1C(=O)O	29.2%	29.1 µM [rising, partial curve]	
Cc1ccc(OCC(=O)N/N=C/C=C/c2ccco2)c(Br)c1	-31.5%	11.6 µM [falling, single point]	32.6 µM [falling, single point]
CN(C)c1ncc(/C=C2/C(=O)NC(=S)N(C3CCCCC3)C2=O)cn1	-21.7%	1.84 µM [falling, single point]	
CC(=O)c1cccc(NC(=O)CNC(=O)c2cc3ccccc3o2)c1	4.13%	29.1 µM [rising, single point]	3.26 µM [rising, single point]
CCn1cc(C(=O)NCCCN(C)C)c(=O)c2cc(F)c(N3CCN(C)CC3)cc21	-19.6%	0.146 µM [falling, full curve]	
CC1(C)C(=O)OC(/C=C/c2cccc([N+](=O)[O-])c2)C(C)(C)C1=O (centres undefined)	-20.2%		0.58 µM [falling, single point]
C=CCn1c(-c2sccc2C)n[nH]c1=S	12.9%	11.6 µM [rising, partial curve]	
COc1ccc(NC(=O)C2CC(=O)N(CCc3ccc(Cl)cc3)C2)cc1 (centres undefined)	48.7%		16.4 µM [rising, partial curve]
COc1ccc(-n2cnnc2SCC(=O)NC2CCS(=O)(=O)C2)cc1 (centres undefined)	-4.45%	0.00651 µM [falling, full curve, poor fit]	
COc1ccc(/C=C(\C#N)C(=O)OCCNC(=O)c2ccncc2)cc1			0.146 µM [falling, single point]

Three compounds out of the list, ordered by length of the SMILES, low to high:
SMILES	cell number change	AC50 [1]	AC50 [2]
Cc1ccc(C)c(-n2c(SCC(N)=O)nnc2-c2ccccn2)c1	5.97%	6.51 µM [falling, single point]	
COc1ccc(NC(=O)C2CC(=O)N(CCc3ccc(Cl)cc3)C2)cc1 (centres undefined)	48.7%		16.4 µM [rising, partial curve]
CC1(C)C(=O)OC(/C=C/c2cccc([N+](=O)[O-])c2)C(C)(C)C1=O (centres undefined)	-20.2%		0.58 µM [falling, single point]
